Results taken from PMC6199744, “Development of Chemical Proteomics for the Folateome and Analysis of the Kinetoplastid Folateome” (ACS Infectious Diseases, 2018).
This continues a long series; more values of the same kind are listed elsewhere.

System: L. major lysate proteins
Assay: Multitargeted bead mixture chemoproteomics, single concentration competition, proteome-wide
Format: binding
Conditions: for fold change: vehicle control = 1

Question: Which results are given for `CCCCCCOc1cccc(Cc2cnc(N)nc2N)c1` [compound 2]?
Answer: fold change (LMJF.29.2360 ASPARTYL AMINOPEPTIDASE, PUTATIVE): 0.87; fold change (LMJF.30.0580 HYPOTHETICAL PROTEIN, CONSERVED): 0.96; fold change (LMJF.30.1040 HYPOTHETICAL PROTEIN, CONSERVED): 0.83; fold change (LMJF.30.3380 PAS-DOMAIN CONTAINING PHOSPHOGLYCERATE KINASE, PUTATIVE): 0.91; fold change (LMJF.30.3530 HYPOTHETICAL PROTEIN, CONSERVED): 0.83; fold change (LMJF.30.3570 ZINC FINGER-DOMAIN PROTEIN, PUTATIVE): 1.15; fold change (LMJF.31.1110 HY[…], CONSERVED): 0.99; fold change (LMJF.31.2640 2-OXOGLUTARATE DEHYDROGENASE, E3 COMPONENT, […]-LIKE PROTEIN): 1.06; fold change (LMJF.32.0450 AF467951_1 ribosomal protein S2): 1.55; fold change (LMJF.33.3270 DELTA-12 FATTY ACID DESATURASE): 1.13; fold change (LMJF.34.0010 HY[…], CONSERVED): 1.04; fold change (LMJF.34.2610 ATP-DEPENDENT DNA HELICASE, PUTATIVE): 0.87; fold change (LMJF.34.4620 HY[…], CONSERVED): 1.04; fold change (LMJF.35.2150 HY[…], CONSERVED): 1.06; fold change (LMJF.35.2980 CHAPERONE PROTEIN DNAJ, PUTATIVE): 0.83; fold change (LMJF.35.4300 HYPOTHETICAL PROTEIN, CONSERVED): 0.81; fold change (LMJF.35.4880 HY[…], CONSERVED): 1.16; fold change (LMJF.36.0250 EIF3-INTERACTING PROTEIN-LIKE PROTEIN): 0.95; fold change (LMJF.36.1940 INOSINE-GUANOSINE TRANSPORTER): 1.04; fold change (protein AF312586_1 IRON […] B1 (AF312583_1 iron […] B2)): 1.11; fold change (protein CLM00008612.1 UNNAMED PROTEIN PRODUCT): 0.85; fold change (protein LINJ.01.0790 […] 4A, PUTATIVE): 1.26; fold change (protein LINJ.03.0240 RIBOSOMAL PROTEIN L38, PUTATIVE): 2.01; fold change vs vehicle control (protein LINJ.04.0630 HY[…], CONSERVED): 1.03; fold change (protein LINJ.05.0070 DYNEIN LIGHT CHAIN, PUTATIVE): 0.9; fold change (protein LINJ.07.0210 CYTOCHROME C1, HEME PROTEIN, MIT[…], PUTATIVE): 1.27; fold change vs vehicle control (protein LINJ.08.1020 STRESS-INDUCED PROTEIN STI1): 1.19; fold change (protein LINJ.16.1510 PAR[…] PROTEIN 2C): 1.08; fold change (protein LINJ.19.0140 PROTEIN KINASE, PUTATIVE,MITOGEN-ACTIVATED PROTEIN KINASE, PUTATIVE): 1.44; fold change (protein LINJ.23.0860 3-KETOACYL-COA THIOLASE, PUTATIVE): 1.1; fold change (protein LINJ.24.2300 60S RIBOSOMAL PROTEIN L12, PUTATIVE): 1.33; fold change (protein LINJ.25.1460 GTP-BINDING PROTEIN, PUTATIVE): 1.07; fold change (protein LINJ.25.2230 SUCCINYL-COA […] SUBUNIT, PUTATIVE): 1.25; fold change (protein LINJ.26.0590 10 KDA HEAT SHOCK PROTEIN, PUTATIVE): 1.07; fold change (protein LINJ.26.0840 40S RIBOSOMAL PROTEIN S16, PUTATIVE): 1.19; fold change (protein LINJ.28.1310 GLUCOSE-REGULATED PROTEIN 78, PUTATIVE): 1.15; fold change (protein LINJ.28.1850 […]-ATP-ASE SUBUNIT 2, PUTATIVE): 1.26; fold change (protein LINJ.28.2280 DYNEIN LIGHT CHAIN LC6, FLAGELLAR OUTER ARM, PUTATIVE): 1.2; fold change (protein LINJ.31.0710 HY[…], CONSERVED): 1.15; fold change (protein LINJ.32.0240 DYNEIN LIGHT CHAIN, FLAGELLAR OUTER ARM, PUTATIVE): 1.3; fold change vs vehicle control (protein LINJ.32.2960 PROTEASOME REGULATORY NON-ATP-ASE SUBUNIT, PUTATIVE): 1.1; fold change (protein LINJ.32.3230 PROTEIN PHOSPHATASE 2A CATALYTIC SUBUNIT, PUTATIVE): 1.17; fold change (protein LINJ.33.0350 HEAT SHOCK PROTEIN 83-1): 1.12; fold change (protein LINJ.35.2250 kinetoplastid membrane protein 11): 0.89; fold change (protein LINJ.35.3840 60S RIBOSOMAL PROTEIN L23, PUTATIVE): 1.19; fold change vs vehicle control (protein LINJ.35.4200 POLY(A)-BINDING PROTEIN 2,POLY(A) BINDING PROTEIN, PUTATIVE): 1.11; fold change (protein LMJF.01.0320 POLY(A) EXPORT PROTEIN, PUTATIVE): 1.21; fold change (protein LMJF.01.0650 MIT[…] BETA SUBUNIT, PUTATIVE): 1; fold change (protein LMJF.02.0450 VOLTAGE-DEPENDENT ANION-SELECTIVE CHANNEL, PUTATIVE): 1.2; fold change (protein LMJF.03.0200 DELTA-1-PYRROLINE-5-CARBOXYLATE DEHYDROGENASE, PUTATIVE): 0.99; fold change (protein LMJF.03.0980 […] 2 ALPHA SUBUNIT, PUTATIVE): 1.08; fold change vs vehicle control (protein LMJF.04.1230 actin): 1.17; fold change vs vehicle control (protein LMJF.07.0220 HYPOTHETICAL PROTEIN, CONSERVED): 0.87; fold change (protein LMJF.07.0270 […] DEACETYLASE-LIKE PROTEIN): 1.02; fold change (protein LMJF.07.0340 ATP-DEPENDENT DEAD/H RNA HELICASE, PUTATIVE): 1.1; fold change (protein LMJF.07.0640 HYPOTHETICAL PROTEIN, CONSERVED): 0.9; fold change (protein LMJF.07.1000 RNA BINDING PROTEIN-LIKE PROTEIN): 1.3; fold change (protein LMJF.07.1140 PEPTIDE […] REDUCTASE-LIKE): 1.06; fold change (protein LMJF.08.0320 MITOCHONDRIAL ASSOCIATED RIBONUCLEASE, PUTATIVE): 0.93; fold change (protein LMJF.09.0970 […]-1 GAMMA): 1.09; fold change (protein LMJF.10.0210 NUCLEOLAR PROTEIN, PUTATIVE): 1.12; fold change (protein LMJF.11.0220 PTERIN-4-ALPHA-CARBINOLAMINE DEHYDRATASE, PUTATIVE): 1.09; fold change (protein LMJF.11.0350 14-3-3 PROTEIN, PUTATIVE): 1.13
